Measurements taken from patent US20120282331A1, “MAMMALIAN METABOLITES OF STEROIDS” (TOKAI PHARMACEUTICALS, INC., priority 2009, published 2012).
At least one read-out could not be matched to a standard name with certainty.

Assay: Negative control: chemical stability in incubation without microsomes
Type: physicochemical
Conditions: blank without microsomes, volume replaced by 0.1 M phosphate buffer; within 7%

## C[C@]12CC[C@H](O)CC1=CC[C@@H]1[C@@H]2CC[C@]2(C)C(n3cnc4ccccc43)=CC[C@@H]12 [Compound (1), 3β-Hydroxy-17(1H-benzimidazol-1-yl)androsta-5,16-diene]
  % recovery following 120 minutes compared to the 0 minute: ~100%
